Consider six substances from publication PMC6499421.

These are yes or no findings as the source states them, for the method shown. For some assays here: Binding can be weak; no strength is given. For some assays here: Sequences can lack the tags named with a protein. For some assays here: In cells and extracts the contact can be indirect.

In assay [1] the target is T1, BD-MKK1 (Arabidopsis thaliana) (UniProt Q94A06).
T1 sequence: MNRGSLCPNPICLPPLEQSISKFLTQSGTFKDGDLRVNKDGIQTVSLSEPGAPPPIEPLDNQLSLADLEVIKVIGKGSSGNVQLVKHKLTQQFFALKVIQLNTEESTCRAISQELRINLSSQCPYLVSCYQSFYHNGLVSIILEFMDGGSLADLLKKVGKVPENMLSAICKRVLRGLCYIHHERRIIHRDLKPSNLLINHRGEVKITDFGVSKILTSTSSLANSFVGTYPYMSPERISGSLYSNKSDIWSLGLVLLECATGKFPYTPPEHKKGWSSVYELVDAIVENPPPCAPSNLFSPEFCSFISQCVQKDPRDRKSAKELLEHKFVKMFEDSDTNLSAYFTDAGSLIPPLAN
Description: two-hybrid; pGADT7 (AD) and pGBKT7 (BD) fusions in S. cerevisiae Gold strain; growth on SD/-Leu/-Trp/-His with 5 mM 3-AT, 30°C.

Assay [2] deals with T2, BD-MKK2 (Arabidopsis thaliana) (UniProt Q9S7U9).
T2 sequence: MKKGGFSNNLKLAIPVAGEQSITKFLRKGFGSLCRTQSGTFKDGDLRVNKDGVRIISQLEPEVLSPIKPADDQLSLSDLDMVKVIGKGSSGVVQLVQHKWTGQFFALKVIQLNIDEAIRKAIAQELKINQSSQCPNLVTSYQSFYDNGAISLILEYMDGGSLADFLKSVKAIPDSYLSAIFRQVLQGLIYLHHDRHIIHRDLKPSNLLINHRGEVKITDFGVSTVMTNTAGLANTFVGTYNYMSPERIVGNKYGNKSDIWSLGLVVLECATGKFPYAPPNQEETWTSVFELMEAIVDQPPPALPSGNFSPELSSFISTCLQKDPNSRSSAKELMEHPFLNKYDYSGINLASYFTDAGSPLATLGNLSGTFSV
The description is as above.

The target in another assay is T3, NLuc-AGO1 (Arabidopsis) (UniProt O04379).
T3 sequence: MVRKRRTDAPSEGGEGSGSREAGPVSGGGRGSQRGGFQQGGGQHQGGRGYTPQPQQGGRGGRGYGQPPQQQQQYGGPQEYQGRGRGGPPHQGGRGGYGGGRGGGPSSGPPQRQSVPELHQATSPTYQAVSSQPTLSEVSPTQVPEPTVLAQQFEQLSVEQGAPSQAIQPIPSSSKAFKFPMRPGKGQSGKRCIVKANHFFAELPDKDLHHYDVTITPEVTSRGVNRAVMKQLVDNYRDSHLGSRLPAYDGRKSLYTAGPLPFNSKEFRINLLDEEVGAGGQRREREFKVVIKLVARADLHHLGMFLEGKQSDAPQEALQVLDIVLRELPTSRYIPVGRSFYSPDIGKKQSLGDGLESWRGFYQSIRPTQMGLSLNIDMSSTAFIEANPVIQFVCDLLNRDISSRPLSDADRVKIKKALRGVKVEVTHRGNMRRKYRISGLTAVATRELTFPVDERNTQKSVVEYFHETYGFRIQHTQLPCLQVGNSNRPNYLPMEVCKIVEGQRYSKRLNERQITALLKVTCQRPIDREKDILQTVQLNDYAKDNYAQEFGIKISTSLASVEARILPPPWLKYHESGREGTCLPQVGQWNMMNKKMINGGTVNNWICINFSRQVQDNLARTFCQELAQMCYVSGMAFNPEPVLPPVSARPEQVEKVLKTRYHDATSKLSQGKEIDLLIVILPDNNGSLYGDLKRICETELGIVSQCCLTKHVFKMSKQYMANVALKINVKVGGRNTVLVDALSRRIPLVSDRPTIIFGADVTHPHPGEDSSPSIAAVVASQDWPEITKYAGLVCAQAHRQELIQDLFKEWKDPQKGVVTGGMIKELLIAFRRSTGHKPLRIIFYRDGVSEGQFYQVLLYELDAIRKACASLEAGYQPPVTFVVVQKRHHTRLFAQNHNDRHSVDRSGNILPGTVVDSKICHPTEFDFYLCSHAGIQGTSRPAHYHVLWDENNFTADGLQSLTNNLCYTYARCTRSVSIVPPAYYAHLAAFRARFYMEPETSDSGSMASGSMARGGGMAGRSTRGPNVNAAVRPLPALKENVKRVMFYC
Description: split reporter; firefly luciferase complementation imaging (LCI): NLuc and CLuc fusions co-infiltrated in N. benthamiana leaves, luciferase activity recorded by CCD camera.

Assay [3] concerns the target T4, 3Flag-MKK2 (Arabidopsis thaliana) (UniProt Q9S7U9).
T4 sequence: T2 sequence
Description: co-IP; constructs co-infiltrated in N. benthamiana leaves; IP with Anti-FLAG M2 magnetic beads in 40 mM Tris-HCl pH 7.5, 150 mM NaCl, 5 mM MgCl2, 2 mM EDTA, 5 mM DTT, 0.5% Triton X-100, 5% glycerol; blots with anti-GFP and anti-Flag.

In assay [4] the target is T5, MKK1 (LCI construct) (Arabidopsis thaliana) (UniProt Q94A06).
T5 sequence: T1 sequence
Description: split reporter; firefly luciferase complementation imaging (LCI): NLuc and CLuc fusions co-infiltrated in N. benthamiana leaves, luciferase activity recorded by CCD camera.

Assay [5] deals with T6, MKK2 fused to CLuc (Arabidopsis thaliana) (UniProt Q9S7U9).
T6 sequence: T2 sequence
The description is as above.

For assay [6], the target named is T7, MKK1-nYFP (Arabidopsis thaliana) (UniProt Q94A06).
T7 sequence: T1 sequence
Description: split reporter; BiFC: nYFP and cYFP fusions co-infiltrated in RFP-H2B transgenic N. benthamiana leaves, confocal microscopy.

Assay [7] deals with T8, MKK2-CTP-nYFP (Arabidopsis thaliana) (UniProt Q9S7U9).
T8 sequence: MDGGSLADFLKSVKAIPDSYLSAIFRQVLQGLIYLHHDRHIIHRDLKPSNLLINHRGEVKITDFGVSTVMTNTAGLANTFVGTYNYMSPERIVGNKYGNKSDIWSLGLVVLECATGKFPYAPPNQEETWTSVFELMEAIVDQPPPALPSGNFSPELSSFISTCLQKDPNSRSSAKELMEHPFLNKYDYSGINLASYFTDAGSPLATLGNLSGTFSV
Described as above.

Assay [8] concerns the target T9, MKK2-KD-nYFP (Arabidopsis thaliana) (UniProt Q9S7U9).
T9 sequence: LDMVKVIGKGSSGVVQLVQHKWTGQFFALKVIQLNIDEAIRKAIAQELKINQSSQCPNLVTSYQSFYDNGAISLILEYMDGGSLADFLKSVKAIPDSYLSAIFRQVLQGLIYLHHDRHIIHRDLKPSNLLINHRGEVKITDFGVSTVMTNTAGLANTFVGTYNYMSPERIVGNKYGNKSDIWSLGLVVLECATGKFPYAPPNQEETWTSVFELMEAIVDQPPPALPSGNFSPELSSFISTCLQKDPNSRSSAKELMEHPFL
The description is as above.

Assay [9] has as its target T10, MKK2-nYFP (Arabidopsis thaliana) (UniProt Q9S7U9).
T10 sequence: T2 sequence
The assay is described as above.

AD-βC1: the binding entry in assay [1] is recorded as “no binding”; in assay [2], “binds”.

For the substance CLuc-CMV 2b (cucumber mosaic virus), in the assay with NLuc-AGO1 (Arabidopsis), the binding result is reported as “binds”. On to GFP-βC1, for which the binding entry in assay [3] is on record as “binds”.

Consider “endogenous actin protein (N. benthamiana (endogenous in leaves))”, for which the binding entry in [3] is recorded as “no binding”. On to βC1 fused to NLuc, for which the binding entry in [4] is reported as “no binding”; in assay [5] it was “binds”. For βC1-cYFP, the binding entry in assay [6] is “no binding”; in assay [7], “binds”; in assay [8] it was “binds”; in assay [9], “binds”.
